{"sequences": {"note": "Chains of the proteins cited; added tags and fusions are not shown. Lines headed by an entry give the natural chain unless they say otherwise; changes in a name come on top.", "UniProt Q01717": "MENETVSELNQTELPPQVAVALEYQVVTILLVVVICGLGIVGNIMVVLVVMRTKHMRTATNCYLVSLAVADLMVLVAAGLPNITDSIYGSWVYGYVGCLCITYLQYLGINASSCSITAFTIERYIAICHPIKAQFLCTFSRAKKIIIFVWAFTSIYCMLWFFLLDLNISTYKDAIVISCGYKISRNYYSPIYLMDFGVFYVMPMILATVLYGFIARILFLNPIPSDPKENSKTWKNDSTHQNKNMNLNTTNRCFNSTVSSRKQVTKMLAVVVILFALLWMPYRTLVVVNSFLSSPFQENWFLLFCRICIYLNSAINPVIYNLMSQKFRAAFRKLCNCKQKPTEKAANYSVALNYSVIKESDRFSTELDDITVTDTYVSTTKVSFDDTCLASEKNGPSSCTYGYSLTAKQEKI", "UniProt Q07869": "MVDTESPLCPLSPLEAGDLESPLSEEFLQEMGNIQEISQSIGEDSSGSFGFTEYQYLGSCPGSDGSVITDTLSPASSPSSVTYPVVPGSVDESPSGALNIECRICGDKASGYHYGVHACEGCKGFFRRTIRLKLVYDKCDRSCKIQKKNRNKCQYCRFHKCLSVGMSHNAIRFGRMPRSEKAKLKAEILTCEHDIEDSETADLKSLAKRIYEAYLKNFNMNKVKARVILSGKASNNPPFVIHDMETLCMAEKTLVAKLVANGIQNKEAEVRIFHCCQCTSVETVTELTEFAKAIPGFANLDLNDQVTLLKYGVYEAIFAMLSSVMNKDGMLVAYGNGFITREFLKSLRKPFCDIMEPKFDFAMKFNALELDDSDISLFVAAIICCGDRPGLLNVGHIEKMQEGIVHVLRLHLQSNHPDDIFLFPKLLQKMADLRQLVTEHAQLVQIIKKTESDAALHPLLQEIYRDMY", "UniProt P10275": "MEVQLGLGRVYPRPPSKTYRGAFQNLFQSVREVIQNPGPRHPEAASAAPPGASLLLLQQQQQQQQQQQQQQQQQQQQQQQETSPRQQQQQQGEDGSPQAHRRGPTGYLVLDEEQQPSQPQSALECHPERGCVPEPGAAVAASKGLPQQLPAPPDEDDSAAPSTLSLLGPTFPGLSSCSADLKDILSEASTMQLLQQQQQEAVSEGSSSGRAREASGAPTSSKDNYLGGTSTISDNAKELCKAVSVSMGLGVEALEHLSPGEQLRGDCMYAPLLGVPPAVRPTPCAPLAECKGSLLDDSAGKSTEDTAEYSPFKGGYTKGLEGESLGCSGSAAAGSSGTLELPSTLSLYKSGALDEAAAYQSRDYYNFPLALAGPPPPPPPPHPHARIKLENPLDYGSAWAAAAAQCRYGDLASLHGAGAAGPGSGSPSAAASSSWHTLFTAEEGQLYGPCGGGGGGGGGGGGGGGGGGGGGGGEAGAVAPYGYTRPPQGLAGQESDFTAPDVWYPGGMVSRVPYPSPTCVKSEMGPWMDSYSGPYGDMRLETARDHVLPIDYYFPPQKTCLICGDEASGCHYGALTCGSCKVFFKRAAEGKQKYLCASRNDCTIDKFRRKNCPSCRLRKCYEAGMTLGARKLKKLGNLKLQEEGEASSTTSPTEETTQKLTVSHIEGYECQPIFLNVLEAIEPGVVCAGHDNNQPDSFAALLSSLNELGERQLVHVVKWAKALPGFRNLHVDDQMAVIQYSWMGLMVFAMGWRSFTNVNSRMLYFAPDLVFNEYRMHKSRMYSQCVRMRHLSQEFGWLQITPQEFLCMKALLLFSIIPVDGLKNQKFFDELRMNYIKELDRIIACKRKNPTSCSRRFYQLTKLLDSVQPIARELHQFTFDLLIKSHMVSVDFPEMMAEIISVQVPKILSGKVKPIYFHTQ", "UniProt P37231": "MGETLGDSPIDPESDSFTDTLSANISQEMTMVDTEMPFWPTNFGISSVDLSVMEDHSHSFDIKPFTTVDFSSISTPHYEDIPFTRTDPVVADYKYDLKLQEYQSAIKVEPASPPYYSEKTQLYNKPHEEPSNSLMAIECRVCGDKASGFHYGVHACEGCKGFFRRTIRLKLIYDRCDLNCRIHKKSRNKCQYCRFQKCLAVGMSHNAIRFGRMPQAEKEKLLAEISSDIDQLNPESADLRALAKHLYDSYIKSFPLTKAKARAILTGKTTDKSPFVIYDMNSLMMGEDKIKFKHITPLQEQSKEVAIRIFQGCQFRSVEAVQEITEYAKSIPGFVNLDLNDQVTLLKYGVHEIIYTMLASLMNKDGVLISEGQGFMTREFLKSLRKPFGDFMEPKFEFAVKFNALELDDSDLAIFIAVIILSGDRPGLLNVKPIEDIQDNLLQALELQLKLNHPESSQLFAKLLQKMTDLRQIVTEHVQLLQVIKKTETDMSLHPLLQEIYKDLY", "UniProt P05979, whole entry, looked up": "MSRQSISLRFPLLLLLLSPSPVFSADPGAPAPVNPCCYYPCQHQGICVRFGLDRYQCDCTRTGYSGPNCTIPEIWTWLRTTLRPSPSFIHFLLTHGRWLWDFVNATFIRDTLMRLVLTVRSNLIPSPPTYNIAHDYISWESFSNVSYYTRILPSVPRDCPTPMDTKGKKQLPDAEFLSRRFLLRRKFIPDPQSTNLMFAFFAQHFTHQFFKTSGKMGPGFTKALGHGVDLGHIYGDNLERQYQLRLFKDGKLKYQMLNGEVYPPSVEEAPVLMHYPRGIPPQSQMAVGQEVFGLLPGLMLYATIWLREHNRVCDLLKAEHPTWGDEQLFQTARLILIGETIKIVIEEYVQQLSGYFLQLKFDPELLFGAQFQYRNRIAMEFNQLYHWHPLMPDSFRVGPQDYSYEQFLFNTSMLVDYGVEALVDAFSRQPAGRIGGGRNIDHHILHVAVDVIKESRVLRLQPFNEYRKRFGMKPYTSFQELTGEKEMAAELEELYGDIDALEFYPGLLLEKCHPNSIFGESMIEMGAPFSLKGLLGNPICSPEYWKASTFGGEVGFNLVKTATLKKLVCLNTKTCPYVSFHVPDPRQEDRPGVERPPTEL", "UniProt P49884, whole entry, looked up": "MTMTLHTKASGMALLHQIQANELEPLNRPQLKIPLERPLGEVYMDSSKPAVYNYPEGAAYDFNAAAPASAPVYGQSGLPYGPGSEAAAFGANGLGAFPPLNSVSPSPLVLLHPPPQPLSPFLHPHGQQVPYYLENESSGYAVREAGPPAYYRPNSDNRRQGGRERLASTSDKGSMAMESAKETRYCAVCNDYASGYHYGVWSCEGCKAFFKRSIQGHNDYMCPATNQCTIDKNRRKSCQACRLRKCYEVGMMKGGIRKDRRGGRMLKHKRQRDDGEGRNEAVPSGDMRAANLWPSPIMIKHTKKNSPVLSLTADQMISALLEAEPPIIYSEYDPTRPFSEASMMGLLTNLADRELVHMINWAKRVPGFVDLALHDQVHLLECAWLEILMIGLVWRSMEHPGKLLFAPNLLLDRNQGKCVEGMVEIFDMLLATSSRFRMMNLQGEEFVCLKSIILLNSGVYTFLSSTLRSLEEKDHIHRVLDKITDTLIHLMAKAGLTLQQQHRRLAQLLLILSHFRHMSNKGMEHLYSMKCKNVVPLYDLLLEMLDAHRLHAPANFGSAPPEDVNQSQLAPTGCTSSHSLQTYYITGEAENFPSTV", "UniProt P03372, whole entry, looked up": "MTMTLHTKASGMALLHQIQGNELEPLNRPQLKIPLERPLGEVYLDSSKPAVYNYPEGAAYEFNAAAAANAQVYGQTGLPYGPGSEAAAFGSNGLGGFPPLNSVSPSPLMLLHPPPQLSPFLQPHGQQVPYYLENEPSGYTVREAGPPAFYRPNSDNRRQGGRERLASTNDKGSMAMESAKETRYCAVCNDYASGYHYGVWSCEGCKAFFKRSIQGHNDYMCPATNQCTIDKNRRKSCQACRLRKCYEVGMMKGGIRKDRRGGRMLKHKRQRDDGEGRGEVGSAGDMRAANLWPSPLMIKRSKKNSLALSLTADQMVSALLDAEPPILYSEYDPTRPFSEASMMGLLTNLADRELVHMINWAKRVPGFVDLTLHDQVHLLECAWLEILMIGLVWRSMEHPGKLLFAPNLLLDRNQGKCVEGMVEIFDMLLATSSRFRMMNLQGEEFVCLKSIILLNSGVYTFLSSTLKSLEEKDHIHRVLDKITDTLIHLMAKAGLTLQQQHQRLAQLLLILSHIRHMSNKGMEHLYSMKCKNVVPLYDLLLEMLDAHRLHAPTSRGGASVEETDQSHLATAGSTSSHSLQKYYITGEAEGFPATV", "UniProt P19785, whole entry, looked up": "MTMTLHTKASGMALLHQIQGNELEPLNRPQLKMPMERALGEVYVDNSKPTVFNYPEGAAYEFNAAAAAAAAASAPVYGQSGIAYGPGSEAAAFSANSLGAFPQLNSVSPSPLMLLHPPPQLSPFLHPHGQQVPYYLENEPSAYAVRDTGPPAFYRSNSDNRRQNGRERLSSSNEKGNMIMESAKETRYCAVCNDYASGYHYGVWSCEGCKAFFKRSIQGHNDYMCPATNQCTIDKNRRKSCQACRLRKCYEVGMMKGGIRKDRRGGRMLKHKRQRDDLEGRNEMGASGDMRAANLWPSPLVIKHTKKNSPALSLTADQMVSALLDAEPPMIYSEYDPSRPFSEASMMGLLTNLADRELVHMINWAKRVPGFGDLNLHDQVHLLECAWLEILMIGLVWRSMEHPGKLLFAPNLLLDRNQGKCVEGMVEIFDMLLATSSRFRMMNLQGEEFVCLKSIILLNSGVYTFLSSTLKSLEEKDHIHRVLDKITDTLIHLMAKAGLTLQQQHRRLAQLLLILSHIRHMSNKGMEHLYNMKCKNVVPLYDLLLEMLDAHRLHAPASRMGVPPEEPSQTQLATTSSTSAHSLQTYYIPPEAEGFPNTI", "UniProt Q96RI1": "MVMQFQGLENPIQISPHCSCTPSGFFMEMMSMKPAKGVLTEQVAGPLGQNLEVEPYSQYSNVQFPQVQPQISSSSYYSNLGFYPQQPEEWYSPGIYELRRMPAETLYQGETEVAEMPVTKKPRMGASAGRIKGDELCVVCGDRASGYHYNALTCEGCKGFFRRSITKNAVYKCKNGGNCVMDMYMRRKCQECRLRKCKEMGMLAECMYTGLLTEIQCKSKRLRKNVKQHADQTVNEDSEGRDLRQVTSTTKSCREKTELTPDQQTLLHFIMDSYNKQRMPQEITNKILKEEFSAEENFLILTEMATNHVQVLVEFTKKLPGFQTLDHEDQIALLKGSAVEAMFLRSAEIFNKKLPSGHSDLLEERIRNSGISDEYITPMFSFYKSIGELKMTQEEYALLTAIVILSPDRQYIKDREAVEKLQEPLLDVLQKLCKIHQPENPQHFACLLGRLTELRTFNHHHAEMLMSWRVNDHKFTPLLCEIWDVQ"}, "source": "PubChem BioAssay (EPA / NIEHS)", "key": {"[1]": {"target": "rat Thyrotropin Releasing Hormone Receptor (TRH), Trhr (gene 25570) (UniProt Q01717)", "experiment": "NVS_GPCR_rTRH: NovaScreen (NVS) G Protein-Coupled Receptor Assay for rat Thyrotropin Releasing Hormone Receptor (TRH) (AID 2283329);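 further: hit means lower bound tracer signal versus DMSO baseline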", "procedure,_shortened": "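Test compounds are screened at 25 uM in duplicate against radioligand binding in rat forebrain membranes, with active pairs followed up over a concentration range. Detection uses filter-based radiodetection after a 4 h exposure.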"}, "[2]": {"target": "human Peroxisome Proliferator-activated Receptor alpha (PPARa), PPARA (gene 5465) (UniProt Q07869)", "experiment": "NVS_NR_hPPARa: NovaScreen (NVS) Nuclear Receptor Binding Assay for human Peroxisome Proliferator-activated Receptor alpha (PPARa) (AID 2283359)", "procedure,_shortened": "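Loss of TR-FRET binding signal relative to DMSO was measured 1 h after chemical addition to extracted receptor protein. Chemicals were first tested in duplicate at 25 uM, and actives were followed up in concentration series.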"}, "[3]": {"experiment": "ACEA_AR_antagonist_AUC_viability: ACEA Biosciences xCELLigence Real-Time Cell Analysis on Androgen Receptor Antagonism for Viability (AID 2283776);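 further: 22Rv1 human prostate cancer cells growing on impedance electrode plates; area under impedance growth curve at 80 h after dosing as viability; hits lower the growth signal relative to DMSO meaning cytotoxicity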", "procedure,_shortened": "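Viability endpoint from label-free cell-index monitoring: 22Rv1 cultures treated with an eight-point 1:4 dilution series starting at 100 uM final, AUC at 80 h fitted against DMSO.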"}, "AR (gene 367)": {"target": "AR (gene 367) (UniProt P10275)", "experiment": "ACEA_AR_agonist_80hr: ACEA Biosciences xCELLigence Real-Time Cell Analysis on Androgen Receptor Agonism for Proliferation (AID 2283783)", "procedure,_shortened": "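Eight concentrations, 1:4 serial dilution from a 100 uM final top, in biological duplicate. Impedance-based real-time growth of 22Rv1 cells after overnight baseline, recorded hourly and read at 80 hours. Controls: testosterone, MG132, assay media.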"}, "[4]": {"experiment": "CCTE_Deisenroth_AIME_384WELL_CTox_Inactive: Cytotoxicity Assessment (CTOX) in CCTE's 384-well Estrogen Receptor Transactivation Assay without AIME metabolic competence (metabolism negative), Deisenroth Lab (AID 2284039);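 further: cell viability via live-cell protease substrate cleaved to fluorescent probe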", "procedure,_shortened": "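Fluorescence from a live-cell protease substrate, read after 24 h in VM7Luc4E2 cells, indicated viability. Test medium came from a 2 h AIME step without hepatic S9 (alginate-water microspheres); concentrations spanned 0.002 - 200 uM, single technical replicate per run.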"}, "[5]": {"target": "Peroxisome proliferator-activated receptor gamma (Homo sapiens) (UniProt P37231)", "experiment": "NVS_NR_hPPARg: NovaScreen (NVS) Nuclear Receptor Binding Assay for human Peroxisome Proliferator-activated Receptor gamma (PPARg) (AID 2283370)", "procedure,_shortened": "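Extracted receptor protein, cell-free; compound incubated 2 h then fluorescence polarization read. Baseline: DMSO. Actives from 25 uM duplicate screen re-run across concentrations.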"}, "[6]": {"experiment": "Tanguay_ZF_120hpf_TR_legacy: (Legacy) Oregon State University Tanguay Lab 120 Hour Post-fertilization zebrafish Assay for Touch Response (AID 2283667)", "procedure,_shortened": "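Binary touch-response endpoint in larvae at 120 hpf after static waterborne exposure from embryo stage (28°C, 0.64% DMSO vehicle, 5 uM trimethyltin chloride as positive control); embryos dead at 24 or 120 hpf excluded; fitted as gain versus DMSO.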"}, "[7]": {"target": "Nucleoli Translocation, AR (gene 367) (UniProt P10275)", "experiment": "UPITT_HCI_U2OS_AR_TIF2_Nucleoli_Agonist: University of Pittsburgh U2OS Androgen Receptor-Transcriptional Intermediary Factor 2 (AR-TIF2) Agonism High Content Imaging Assay for Nucleoli Translocation (AID 2283998)", "procedure,_shortened": "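High-content images quantify nucleolar accumulation of RFP-fused AR in cells also expressing GFP-TIF2; the endpoint is fitted as signal gain versus DMSO controls across final concentrations of 0.195 to 50 uM.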"}, "[8]": {"target": "Ratio of Nucleoli Translocation and Cytoplasm, AR (gene 367) (UniProt P10275)", "experiment": "UPITT_HCI_U2OS_AR_TIF2_Nucleoli_Cytoplasm_Ratio_Antagonist: University of Pittsburgh U2OS Androgen Receptor-Transcriptional Intermediary Factor 2 (AR-TIF2) Antagonism High Content Imaging Assay for Ratio of Nucleoli Translocation and Cytoplasm (AID 2283999);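 further: antagonists lower the DHT-driven ratio of nucleolar to cytoplasmic red signal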", "procedure,_shortened": "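Read-out is the ratio of nucleolar to cytoplasmic AR-RFP fluorescence, imaged by high-content microscopy in U2OS cells coexpressing TIF2-GFP. Single-point 20 uM screen, triplicate confirmation, then 0.195–50 uM dose response; activity referenced to DHT baseline.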"}, "[9]": {"target": "sheep Cyclooxygenase-1 (Cox1), PTGS1 (gene 443551) (UniProt P05979)", "experiment": "NVS_ENZ_oCOX1: NovaScreen (NVS) Enzymatic Assay for sheep Cyclooxygenase-1 (Cox1) (AID 2283239);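 further: actives reduce cyclooxygenase activity so potencies are for inhibitors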", "procedure,_shortened": "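Tested in duplicate at 25 uM, then in concentration series if active, against seminal vesicle extract from sheep. Enzyme activity was measured colorimetrically at 0.66 hour and normalised to DMSO.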"}, "[10]": {"target": "bovine Estrogen Receptor (ER), ESR1 (gene 407238) (UniProt P49884)", "experiment": "NVS_NR_bER: NovaScreen (NVS) Nuclear Receptor Binding Assay for bovine Estrogen Receptor (ER) (AID 2283345);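 further: actives lower the bound radioligand count which means they displace the ER ligand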", "procedure,_shortened": "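Bovine uterine membranes; tritiated or iodinated radioligand; competitive displacement; 18 h; scintillation read; DMSO negative control; 25 uM duplicates, then concentration series for actives.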"}, "[11]": {"target": "Estrogen receptor (Homo sapiens) (UniProt P03372)", "experiment": "NVS_NR_hER: NovaScreen (NVS) Nuclear Receptor Binding Assay for human Estrogen Receptor (ER) (AID 2283348)", "procedure,_shortened": "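Cell-free MCF7-derived ER preparation, specific radioligand displaced by test compound, read by scintillation counting 18 h post-dosing. Duplicate single-point 25 uM screen, then concentration-response confirmation; DMSO baseline.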"}, "[12]": {"target": "mouse Estrogen Receptor alpha (Era), Esr1 (gene 13982) (UniProt P19785)", "experiment": "NVS_NR_mERa: NovaScreen (NVS) Nuclear Receptor Binding Assay for mouse Estrogen Receptor alpha (Era) (AID 2283378)", "procedure,_shortened": "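Measurements come from scintillation counting after filtration, taken 18 hours after chemicals were added to a cell-free mouse Era preparation with radioligand. Screening was duplicate at 25 uM, with concurrent positive and negative controls and confirmatory concentration series for actives.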"}, "[13]": {"experiment": "CCTE_Shafer_MEA_acute_AB: CCTE's Alamar Blue Assay for Cytotoxicity in the Neural Acute Assay, Shafer Lab (AID 2284069);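 further: active compounds lower the viability signal compared with DMSO wells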", "procedure,_shortened": "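Cytotoxicity endpoint for acute MEA exposures of primary rat cortical neurons on day 13 or 15. Resazurin reduction is read fluorescently at 544/590 nm, with DMSO as the negative-control baseline.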"}, "[14]": {"experiment": "Tanguay_ZF_120hpf_NC_legacy: (Legacy) Oregon State University Tanguay Lab 120 Hour Post-fertilization zebrafish Assay for Notochord and Tail Malformation (AID 2283656)", "procedure,_shortened": "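Binary notochord-distortion calls, made by brightfield inspection, form the read-out; activity is fitted in the positive direction against DMSO. Exposure ran statically from 6 to 120 hpf at 28C with 0.64% DMSO.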"}, "[15]": {"target": "Bile acid receptor (Homo sapiens) (UniProt Q96RI1)", "experiment": "OT_FXR_FXRSRC1_0480: Odyssey Thera (OT) 8-hour HEK293T Protein-Complementation Assay for Farnesoid X receptor/SRC-1 Co-activator (AID 2283383)", "procedure,_shortened": "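Fluorescence intensity read-out, 8 h post-dose, HEK293T protein-fragment complementation; FXR bait and SRC-1 prey each linked to reporter fragments. Activity scored as signal increase over DMSO negative control.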"}, "[16]": {"experiment": "Tanguay_ZF_120hpf_PFIN_legacy: (Legacy) Oregon State University Tanguay Lab 120 Hour Post-fertilization zebrafish Assay for Pectoral Fin Malformation (AID 2283648);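 further: each larva judged yes or no for fin defect by brightfield with dead larvae skipped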", "procedure,_shortened": "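Pectoral fin malformation was recorded as a binary endpoint at 120 hpf in wild-type Tropical 5D larvae, which had been dechorionated and exposed statically from 6 hpf at 28C in 0.64% DMSO. Dead embryos were excluded.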"}}, "note": "Values joined by “and” are separate entries in the source; they are usually repeats but may differ in a detail not shown here. Equal entries are not always repeated. This list was built around the results that the source calls inconclusive (neither active nor inactive); the mix of calls is not that of the screen. For some of these results: Where the call is inconclusive, the potency comes from a doubtful curve fit. Some compounds were tested as several samples or in several runs, with calls that do not always agree. Active and inactive are the calls of the source. How the source made its calls: active means hit-call score of the fitted dose curve at least 0.9, where 1 is the maximum; inconclusive means response in the unintended direction; inactive means score below 0.9."}
{"smiles": "CCCCCC[C@@H](O)C/C=C\\CCCCCCCC(=O)OCC(O)CO", "note": "(stereo partly drawn)", "values": [{"measurement": "AC50", "setting": "[1]", "value": "inconclusive: 25 µM"}, {"measurement": "AC50", "setting": "[2]", "value": "active: 15.5 µM"}, {"measurement": "outcome", "setting": "[3]", "value": "inactive"}, {"measurement": "outcome", "setting": "AR (gene 367)", "value": "inactive"}, {"measurement": "outcome", "setting": "[4]", "value": "inactive"}]}
{"smiles": "CCCCCCCCCC(=O)O", "values": [{"measurement": "outcome", "setting": "[2]", "value": "inactive"}, {"measurement": "AC50", "setting": "[5]", "value": "inconclusive: 0.049 µM"}, {"measurement": "outcome", "setting": "[6]", "value": "inactive"}, {"measurement": "outcome", "setting": "[3]", "value": "inactive"}, {"measurement": "AC50", "setting": "AR (gene 367)", "value": "inconclusive: 52 µM"}, {"measurement": "AC50", "setting": "[7]", "value": "inconclusive: 52 µM"}, {"measurement": "outcome", "setting": "[8]", "value": "inactive"}]}
{"smiles": "CC(=O)C(C)C", "values": [{"measurement": "AC50", "setting": "[9]", "value": "inconclusive: 10.9 µM"}]}
{"smiles": "CCOC(=O)c1ccccc1C(=C1C=C(Br)C(=O)C(Br)=C1)c1cc(Br)c(O)c(Br)c1", "values": [{"measurement": "outcome", "setting": "[10]", "value": "inactive"}, {"measurement": "AC50", "setting": "[11]", "value": "inconclusive: 0.0554 µM"}, {"measurement": "AC50", "setting": "[12]", "value": "inconclusive: 33.4 µM"}, {"measurement": "AC50", "setting": "[13]", "value": "inconclusive: 11.8 µM"}]}
{"smiles": "OCCOCCOCCO", "values": [{"measurement": "outcome", "setting": "[14]", "value": "inactive"}, {"measurement": "outcome", "setting": "AR (gene 367)", "value": "inactive"}, {"measurement": "AC50", "setting": "[8]", "value": "inconclusive: 50 µM"}]}
{"smiles": "CCOC(=O)[C@H](C)Oc1ccc(Oc2nc3ccc(Cl)cc3o2)cc1", "values": [{"measurement": "outcome", "setting": "[5]", "value": "inactive"}]}
{"smiles": "CC(=O)[C@H]1CC[C@H]2[C@@H]3CCC4=CC(=O)CC[C@]4(C)[C@H]3CC[C@]12C", "values": [{"measurement": "AC50", "setting": "[10]", "value": "inconclusive: 50 nM and active: 12.4 µM"}, {"measurement": "AC50", "setting": "[5]", "value": "inconclusive: 0.139 µM"}, {"measurement": "AC50", "setting": "[12]", "value": "active: 17.4 µM and inconclusive: 1.8 µM"}, {"measurement": "outcome", "setting": "[12]", "value": "inactive"}, {"measurement": "AC50", "setting": "[14]", "value": "inconclusive: 62.2 µM"}, {"measurement": "AC50", "setting": "[3]", "value": "inconclusive: 17.8 µM"}, {"measurement": "AC50", "setting": "[4]", "value": "active: 27.4 µM"}]}
{"smiles": "CC(C)(c1cc(Br)c(O)c(Br)c1)c1cc(Br)c(O)c(Br)c1", "values": [{"measurement": "outcome", "setting": "[12]", "value": "inactive"}, {"measurement": "AC50", "setting": "[15]", "value": "active: 70 µM"}, {"measurement": "AC50", "setting": "[16]", "value": "inconclusive: 2.85 µM"}, {"measurement": "outcome", "setting": "[6]", "value": "inactive"}, {"measurement": "outcome", "setting": "[13]", "value": "inactive"}]}
{"smiles": "Nc1cc([N+](=O)[O-])ccc1O", "values": [{"measurement": "AC50", "setting": "[13]", "value": "inconclusive: 1.3 µM"}]}
{"smiles": "CCCCCc1ccc(O)cc1", "values": [{"measurement": "AC50", "setting": "[11]", "value": "inconclusive: 4.05 µM"}, {"measurement": "AC50", "setting": "[7]", "value": "active: 39.1 µM"}, {"measurement": "AC50", "setting": "[8]", "value": "active: 86.1 µM"}]}
{"smiles": "CC/C=C\\CCOC(=O)c1ccccc1O", "values": [{"measurement": "AC50", "setting": "[13]", "value": "inconclusive: 0.723 µM"}]}
{"smiles": "C[C@H]1C[C@@H]2[C@H]([C@@H](O)C[C@@]3(C)[C@H]2CC[C@]3(O)C(=O)CO)[C@@]2(C)C=CC(=O)C=C12", "values": [{"measurement": "outcome", "setting": "[13]", "value": "inactive"}]}
{"smiles": "Cc1cc(O)c(C(C)(C)C)cc1C(C)(C)C", "values": [{"measurement": "AC50", "setting": "[9]", "value": "inconclusive: 25 µM"}, {"measurement": "AC50", "setting": "[11]", "value": "inconclusive: 25 µM"}, {"measurement": "AC50", "setting": "[12]", "value": "inconclusive: 1.5 µM"}]}
{"smiles": "COC(=O)[C@H]1[C@H]2C[C@@H]3c4[nH]c5cc(OC)ccc5c4CCN3C[C@H]2C[C@@H](OC(=O)c2cc(OC)c(OC)c(OC)c2)[C@@H]1OC", "values": [{"measurement": "AC50", "setting": "[2]", "value": "inconclusive: 21.1 µM"}]}
